This passage reports binding results from publication PMC4086270.

Chains of the proteins cited; added tags and fusions are not shown. Lines headed by an entry give the natural chain unless they say otherwise; changes in a name come on top.
UniProt Q9EQU5: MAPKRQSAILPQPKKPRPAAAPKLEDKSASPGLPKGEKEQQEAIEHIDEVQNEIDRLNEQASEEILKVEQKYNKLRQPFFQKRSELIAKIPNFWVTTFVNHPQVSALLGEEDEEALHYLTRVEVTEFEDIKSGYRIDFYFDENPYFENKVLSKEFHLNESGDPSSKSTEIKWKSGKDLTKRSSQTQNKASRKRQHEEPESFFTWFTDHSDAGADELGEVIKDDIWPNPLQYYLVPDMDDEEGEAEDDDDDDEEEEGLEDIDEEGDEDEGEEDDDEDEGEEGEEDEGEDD
UniProt Q01105: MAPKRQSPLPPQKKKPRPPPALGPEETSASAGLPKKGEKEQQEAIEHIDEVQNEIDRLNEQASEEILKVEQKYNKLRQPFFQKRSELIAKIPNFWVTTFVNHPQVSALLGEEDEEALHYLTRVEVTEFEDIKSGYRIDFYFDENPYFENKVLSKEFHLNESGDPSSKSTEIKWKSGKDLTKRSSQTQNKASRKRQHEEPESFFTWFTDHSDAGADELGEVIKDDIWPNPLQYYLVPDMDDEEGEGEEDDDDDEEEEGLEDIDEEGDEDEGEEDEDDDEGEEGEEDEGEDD
UniProt P63330: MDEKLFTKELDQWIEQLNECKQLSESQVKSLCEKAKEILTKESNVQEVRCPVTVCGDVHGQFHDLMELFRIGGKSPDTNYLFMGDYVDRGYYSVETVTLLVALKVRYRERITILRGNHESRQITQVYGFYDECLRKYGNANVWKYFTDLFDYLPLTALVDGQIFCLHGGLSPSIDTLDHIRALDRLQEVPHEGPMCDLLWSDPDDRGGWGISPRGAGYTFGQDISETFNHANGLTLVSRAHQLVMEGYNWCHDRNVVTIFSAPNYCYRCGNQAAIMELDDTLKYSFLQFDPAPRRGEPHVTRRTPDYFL

Test [1] has as its target endogenous SET (mouse (endogenous in adult mouse brain slices)) (UniProt Q9EQU5). Kind of test: co-IP; lysates of adult mouse brain slices incubated 5 h 30 min with or without recombinant SET (4 μM); IP with polyclonal anti-SET (recognises endogenous and recombinant SET) and protein A Sepharose, overnight 4°C; Hepes 10 mM, NaCl 150 mM, CaCl2 2 mM, Triton X-100 1% pH 7.4; blot for total PP2A C subunit, then methyl-PP2A after stripping.

Test [2] deals with recombinant HA-tagged SET protein fused to the Penetratin vector (human) (UniProt Q01105). The description is as above.

These are yes or no findings as the source states them, for the method shown. In cells and extracts the contact can be indirect. Binding can be weak; no strength is given.

Turning to “PP2A (total PP2A, detected with an anti-PP2A C subunit antibody) (from UniProt P63330) (enzyme)”, the binding result in test [1] and in test [2] was “binds” throughout.
